According to patent publication US20160271230A1 (UNIVERSITY HEALTH NETWORK, published 2016):
Results are given in words; binding and its absence hold for the method and conditions named. Some results given as binding are weak or reduced against the parent protein; the word gives no strength. Where a sequence is shown, tags or fusion partners need not be part of it.

Key:
[1] = molecular target: T1, C-RGMa (C-terminal part of RGMa) (chicken) (UniProt Q8JG54); assay: plate binding assay with 4Ig- or 6FNIII-AP (FIG. 2A)
T1 sequence: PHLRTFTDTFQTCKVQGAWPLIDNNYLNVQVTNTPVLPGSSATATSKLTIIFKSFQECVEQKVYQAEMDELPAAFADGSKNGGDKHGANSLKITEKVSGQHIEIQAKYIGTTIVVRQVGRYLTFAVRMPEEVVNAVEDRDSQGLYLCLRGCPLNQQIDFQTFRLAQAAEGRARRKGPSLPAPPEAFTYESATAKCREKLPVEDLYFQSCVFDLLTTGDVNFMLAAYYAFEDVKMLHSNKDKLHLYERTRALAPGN

[2] = molecular target: T1, C-RGMa (C-terminal part of RGMa) (chicken); assay: ELISA with AP fusions and outgrowth assay (FIGS. 2A-2D)
[3] = molecular target: T2, full-length RGMa (chicken) (UniProt Q8JG54); assay: as above
T2 sequence: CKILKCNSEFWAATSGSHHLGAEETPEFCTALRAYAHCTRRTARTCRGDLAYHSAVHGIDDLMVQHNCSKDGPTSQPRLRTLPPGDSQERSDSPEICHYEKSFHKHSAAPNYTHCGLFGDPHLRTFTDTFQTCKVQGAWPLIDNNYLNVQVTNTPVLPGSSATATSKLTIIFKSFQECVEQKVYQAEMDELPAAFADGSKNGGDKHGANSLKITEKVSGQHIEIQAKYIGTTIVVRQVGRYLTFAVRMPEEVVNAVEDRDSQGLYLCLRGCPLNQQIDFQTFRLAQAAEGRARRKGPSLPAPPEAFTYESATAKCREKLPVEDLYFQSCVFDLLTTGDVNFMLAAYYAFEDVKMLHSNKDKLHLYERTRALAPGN

[4] = molecular target: T3, N-RGMa (N-terminal part of RGMa) (chicken) (UniProt Q8JG54); assay: as above
T3 sequence: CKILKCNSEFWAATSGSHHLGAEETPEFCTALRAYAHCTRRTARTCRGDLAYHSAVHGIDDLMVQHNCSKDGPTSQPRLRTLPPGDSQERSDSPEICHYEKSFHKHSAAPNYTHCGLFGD

[5] = molecular target: T2, full-length RGMa (chicken); assay: ELISA with AP fusions (FIG. 2A)
[6] = molecular target: T3, N-RGMa (N-terminal part of RGMa) (chicken); assay: ELISA with AP fusions (FIG. 2A)
[7] = molecular target: T1, C-RGMa (C-terminal part of RGMa) (chicken); assay: binding assay, 4Ig-AP and 6FNIII-AP on wells coated with RGMa proteins (FIG. 9B)
[8] = molecular target: T2, full-length RGMa (chicken); assay: as above
[9] = molecular target: T4, His-tagged 4Ig-domain of Neogenin (Gallus gallus, UniProt Q90610 1-383); assay: binding studies (data not shown)
T4 construct: Secreted from transfected cells, purified on Ni-NTA; also called His-4Ig; Neogenin-4Ig; not shown: 6-His tag at the N-terminus; myc and 6-His tags of the pSectag 2B vector at the C-terminus
T4 sequence: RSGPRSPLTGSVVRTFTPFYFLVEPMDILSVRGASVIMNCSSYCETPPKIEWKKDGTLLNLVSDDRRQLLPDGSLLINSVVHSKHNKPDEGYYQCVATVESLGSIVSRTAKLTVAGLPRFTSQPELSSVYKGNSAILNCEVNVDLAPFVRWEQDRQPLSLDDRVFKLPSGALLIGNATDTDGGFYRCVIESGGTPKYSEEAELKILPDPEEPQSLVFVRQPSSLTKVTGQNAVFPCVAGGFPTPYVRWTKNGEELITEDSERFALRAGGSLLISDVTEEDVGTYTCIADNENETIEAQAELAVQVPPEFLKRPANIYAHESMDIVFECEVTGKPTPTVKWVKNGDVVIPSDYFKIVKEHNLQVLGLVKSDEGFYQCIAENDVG

Measured: binding

B1: 6FNIII-domain of Neogenin fused to alkaline phosphatase (receptor, not shown: large carriers)
chain: RDVVATLVSTRFIRLTWRTPVSDPQGDNLTYSIFYTKEGINRERVENTSRPGETQVMIQNLMPETVYVFRVVAQNKHGHGESSAPLKVATQPEVQLPGPAPNIRAYAGSPTSVTVTWETPLSGNGEIQNYKLYYMEKGQDSEQDVDVAGLSYTITGLKKYTEYSFRVVAYNKHGPGVSTQDVVVRTLSDVPSAAPQNLTLEARNSKSIMLHWQPPPAGTHSGQITGYKIRYRKVSRKSDVTESVGGTQLFQLIEGLERGTEYNFRIAAMTVNGTGPATDWVSAETFESDLDESRVPEVPSSLHVRPLVTSIVVSWTPPENQNIVVRGYAIGYGIGSPHAQTIKVDYKQRYYTIENLDPSSHYVITLKAFNNVGEGIPLYESAVTRPHSDTSEVDLFVINAPYTPVPDPSPMMPPVGVQASILSHDTIRITWADNSLPKNQKITDARYYTVRWKTNIPANTKYKTANATTLSYLVTGLKPNTLYEFSVMVTKGRRSSTWSMTAHGTTFELVPTSPPKDVTVVSKEGKPRTIIVNWQPPSEANGKITGYIIYYSTDVNAEIHDWVIEPVVGNRLTHQIQELTLDTPYYFKIQARNSKGMGPMSEAVQFRT
binds: [1] | [2] | [3] | [4] | [5] | [6] | [7] | [8]

B2: 4Ig-domain of Neogenin fused to alkaline phosphatase (receptor, not shown: large carriers)
chain: RSGPRSPLTGSVVRTFTPFYFLVEPMDILSVRGASVIMNCSSYCETPPKIEWKKDGTLLNLVSDDRRQLLPDGSLLINSVVHSKHNKPDEGYYQCVATVESLGSIVSRTAKLTVAGLPRFTSQPELSSVYKGNSAILNCEVNVDLAPFVRWEQDRQPLSLDDRVFKLPSGALLIGNATDTDGGFYRCVIESGGTPKYSEEAELKILPDPEEPQSLVFVRQPSSLTKVTGQNAVFPCVAGGFPTPYVRWTKNGEELITEDSERFALRAGGSLLISDVTEEDVGTYTCIADNENETIEAQAELAVQVPPEFLKRPANIYAHESMDIVFECEVTGKPTPTVKWVKNGDVVIPSDYFKIVKEHNLQVLGLVKSDEGFYQCIAENDVG
binds: [6]

B3: N-RGMa portion from human (peptide, UniProt Q96B86 48-168, looked up)
peptide: CKILKCNSEFWSATSGSHAPASDDTPEFCAALRSYALCTRRTARTCRGDLAYHSAVHGIEDLMSQHNCSKDGPTSQPRLRTLPPAGDSQERSDSPEICHYEKSFHKHSATPNYTHCGLFGD
binds: [9]
